Experimental findings from PubChem BioAssay AID248 (DTP/NCI, 2004) are described below.

The list does not hold the whole screen: it is rich in T/C values a quarter to a half above the control, in often repeated tests (any T/C) and in doses without a T/C. Further doses and runs are listed elsewhere. T/C: endpoint of the treated group in % of that of the vehicle group. Some entries give survivors of the animals treated and no T/C: the source files T/C as zero there, which appears to mark a toxic dose or a test without result, not a measured value. Some survivor counts are full or nearly so, which does not show that the dose was tolerated: survival well below the control is almost never listed, so the zero probably covers shortened survival too. Survivors were counted at the toxicity check, usually on the fifth day, unless a day is given; later deaths do not show. Schedules are NCI's codes, read here as Q, the interval in days (D) or hours (H), X, the number of doses. Some schedules carry Z or #; the key to these is not given. Some entries hold several experiments; their values stand side by side, smallest first. For survival time, this PubChem deposit counts one and a half times the control or more as active, and values a quarter to a half above the control carry no call in these data; other NCI protocols may use other cut-offs.

This experiment relates to L1210 leukemia ip in BDF1 mice, survival T/C. In words: NCI In Vivo Anticancer Drug Screen. Data for tumor model L1210 Leukemia (intraperitoneal) in B6D2F1 (BDF1) mice. To be noted: T/C endpoint: mean survival time, higher T/C = longer survival.
Where [1] appears, read: dose: 200.0 mg/kg/injection, schedule: Q01DX001 (ip), vehicle: saline.
Where [2] appears, read: dose: 400.0 mg/kg/injection, schedule: Q01DX001 (ip), vehicle: saline.

For `CCN=C(c1ccc(NC(=O)c2ccc(C(=O)Nc3ccc(C(=NCC)N(CC)C(=O)C(F)(F)C(F)(F)C(F)(F)F)cc3)cc2)cc1)N(CC)C(=O)C(F)(F)C(F)(F)C(F)(F)F`, the T/C is, setting by setting: (dose: 3.75 mg/kg/injection, schedule: Q01DX015 (ip), vehicle: methylcellulose (MC)) 132 % of control; (dose: 6.0 mg/kg/injection, schedule: Q01DX015 (ip), vehicle: methylcellulose (MC)) 139 % of control. In addition, the survivor count by setting is: (dose: 30.0 mg/kg/injection, schedule: Q01DX015 (ip), vehicle: methylcellulose (MC)) 0 of 6; (dose: 62.0 mg/kg/injection, schedule: Q01DX015 (ip), vehicle: methylcellulose (MC)) 0 of 6; (dose: 125.0 mg/kg/injection, schedule: Q01DX015 (ip), vehicle: methylcellulose (MC)) 0 of 6; (dose: 250.0 mg/kg/injection, schedule: Q01DX015 (ip), vehicle: methylcellulose (MC)) 0 of 6; (dose: 500.0 mg/kg/injection, schedule: Q01DX015 (ip), vehicle: methylcellulose (MC)) 0 of 6.

Turning to `Nc1nc(N)c(N)c(Nc2ccc(O)cc2)n1`, the survivor count (dose: 200.0 mg/kg/injection, schedule: Q01DX Z (ip), vehicle: saline) was 6 of 6.

`CCS(=O)(=O)/C=C/c1cccs1`: under “dose: 400.0 mg/kg/injection, schedule: Q01DX009 (ip), vehicle: Klucel (hydroxypropylcellulose) (HPC)”, the survivor count is on record as 0 of 6.

On to `CC(C)Oc1ccc2ccccc2c1`, for which the survivor count was 6 of 6 (dose: 100.0 mg/kg/injection, schedule: Q04DX003 (ip), vehicle: saline); 6 of 6 (dose: 200.0 mg/kg/injection, schedule: Q04DX003 (ip), vehicle: saline); 6 of 6 (dose: 400.0 mg/kg/injection, schedule: Q04DX003 (ip), vehicle: saline).

As for `C[C@]12CC[C@H]3[C@@H](CC[C@]4(O)C[C@@H](O)CC[C@]34C=O)[C@@]1(O)CC[C@@H]2c1ccc(=O)oc1`, the survivor count (dose: 100.0 mg/kg/injection, schedule: Q01DX001 (ip), vehicle: saline) is reported as 0 of 4; the survivor count under setting [1] was 0 of 4; the survivor count under setting [2] is given as 0 of 4.

In the case of `NC(=O)OCCc1c2ccccc2nc2ccccc12`, the survivor count (dose: 100.0 mg/kg/injection, schedule: Q04DX002 (ip), vehicle: other) was 3 of 3 and the survivor count (dose: 400.0 mg/kg/injection, schedule: Q04DX002 (ip), vehicle: other) was 3 of 3.

`COc1ccc2c(c1)N(CC(C)CN(C)C)c1ccccc1S2` (centres undefined): the T/C (dose: 100.0 mg/kg/injection, schedule: Q01DX009 (ip), vehicle: saline with Tween-80) is 133 % of control. Further, the survivor count runs as follows: (dose: 200.0 mg/kg/injection, schedule: Q01DX009 (ip), vehicle: saline with Tween-80) 5 of 6; (dose: 400.0 mg/kg/injection, schedule: Q01DX009 (ip), vehicle: saline with Tween-80) 4 of 6.

Regarding `Cc1ccc2cccc(CC(=O)NN)c2c1`, the survivor count runs as follows: (dose: 400.0 mg/kg/injection, schedule: Q01DX001 (ip), vehicle: saline with Tween-80) 1 of 6; (dose: 400.0 mg/kg/injection, schedule: Q04DX002 (ip), vehicle: saline with Tween-80) 0 of 6.

In the case of `N#Cc1ncc(Cl)cc1[N+](=O)[O-]`, the survivor count reads like this: (dose: 100.0 mg/kg/injection, schedule: Q04DX003 (ip), vehicle: saline with Tween-80) 3 of 6; (dose: 200.0 mg/kg/injection, schedule: Q04DX003 (ip), vehicle: saline with Tween-80) 3 of 6; (dose: 400.0 mg/kg/injection, schedule: Q04DX003 (ip), vehicle: saline with Tween-80) 2 of 6.

On to `CCC1=CC2CC3(C(=O)OC)c4[nH]c5ccccc5c4CC[N+](Cc4ccccc4)(C2)C13` (centres undefined), for which the survivor count reads like this: under setting [1], 3 of 6; under setting [2], 1 of 6.

Turning to `CCCCCC(O)C1C(=O)OC(C)C(O)/C=C/C=C/C=C/C=C/C=C(\C)C(O)C(O)C(O)CC(O)CC(O)CC(O)CC(O)CC1O` (centres undefined), the survivor count by setting is: (dose: 5.0 mg/kg/injection, schedule: Q01DX001 (ip), vehicle: carboxymethylcellulose (CMC)) 0 of 4; (dose: 10.0 mg/kg/injection, schedule: Q01DX001 (ip), vehicle: carboxymethylcellulose (CMC)) 0 of 4; (dose: 20.0 mg/kg/injection, schedule: Q01DX001 (ip), vehicle: carboxymethylcellulose (CMC)) 1 of 4; (dose: 40.0 mg/kg/injection, schedule: Q01DX001 (ip), vehicle: carboxymethylcellulose (CMC)) 0 of 4; (dose: 50.0 mg/kg/injection, schedule: Q01DX001 (ip), vehicle: carboxymethylcellulose (CMC)) 0 of 4; (dose: 80.0 mg/kg/injection, schedule: Q01DX001 (ip), vehicle: carboxymethylcellulose (CMC)) 0 of 4. Further, the survivor count is 0 of 4 (dose: 100.0 mg/kg/injection, schedule: Q01DX001 (ip), vehicle: carboxymethylcellulose (CMC)); 0 of 4 (dose: 200.0 mg/kg/injection, schedule: Q01DX001 (ip), vehicle: carboxymethylcellulose (CMC)); 0 of 4 and 1 of 4 (dose: 400.0 mg/kg/injection, schedule: Q01DX001 (ip), vehicle: carboxymethylcellulose (CMC)).

Consider `Cc1ccc(NC(=O)c2ccccc2)cc1[As]=[As]c1cc(NC(=O)c2ccccc2)ccc1C` (centres undefined), for which the survivor count (dose: 8.0 mg/kg/injection, schedule: Q01DX015 (ip), vehicle: carboxymethylcellulose (CMC)) is 0 of 6.

For `CCCCC(NC(=O)C(F)(F)F)C(=O)O` (centres undefined), the survivor count (dose: 400.0 mg/kg/injection, schedule: Q01DX009 (ip), vehicle: carboxymethylcellulose (CMC)) is 5 of 6.

On to `CN(C)C(=O)On1cccc1C#N`, for which the survivor count reads like this: (dose: 6.25 mg/kg/injection, schedule: Q01DX001 (ip), vehicle: saline with Tween-80) 1 of 3; (dose: 12.5 mg/kg/injection, schedule: Q01DX001 (ip), vehicle: saline with Tween-80) 0 of 3; (dose: 25.0 mg/kg/injection, schedule: Q01DX001 (ip), vehicle: saline with Tween-80) 0 of 3.

With `CC(=O)C[n+]1ccccc1Br`, the survivor count by setting is: (dose: 250.0 mg/kg/injection, schedule: Q01DX015 (ip), vehicle: water) 1 of 6; (dose: 500.0 mg/kg/injection, schedule: Q01DX015 (ip), vehicle: water) 0 of 6.

Take `Oc1ccc(O)c2c1CNCC2O` (centres undefined): under setting [2], the survivor count is on record as 0 of 6.
